Test results taken from publication PMC4746636.
Construct, isoform or probe ends are uncertain for at least one entry.

Chains of the proteins cited; added tags and fusions are not shown. Residues count along the entry.
UniProt Q15554, 43-542: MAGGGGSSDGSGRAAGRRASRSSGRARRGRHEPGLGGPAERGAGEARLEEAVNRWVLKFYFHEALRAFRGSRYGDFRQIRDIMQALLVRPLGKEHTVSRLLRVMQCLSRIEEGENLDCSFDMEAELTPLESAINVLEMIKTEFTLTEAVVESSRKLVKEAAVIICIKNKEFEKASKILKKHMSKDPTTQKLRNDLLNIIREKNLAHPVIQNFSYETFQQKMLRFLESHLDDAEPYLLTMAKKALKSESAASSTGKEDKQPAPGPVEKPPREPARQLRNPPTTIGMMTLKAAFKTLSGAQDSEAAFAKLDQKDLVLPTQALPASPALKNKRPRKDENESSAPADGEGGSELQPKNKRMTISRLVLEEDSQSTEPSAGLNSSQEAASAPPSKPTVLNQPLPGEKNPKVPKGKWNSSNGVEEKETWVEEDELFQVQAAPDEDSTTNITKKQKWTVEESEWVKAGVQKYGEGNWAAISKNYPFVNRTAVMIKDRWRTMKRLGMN

Biological target: TRF2 (UniProt Q15554)
Experiment: EMSA (agarose)
Conditions: 5 nM DNA, 100 nM TRF2; EMSA: 5 nM DNA, 100 nM TRF2, agarose gel; AFM compaction comparison of TRF2ΔB at 300 nM protein; recombinant protein; protein details: His6; label: Alexa488 at 5' of top strand

Sequence: TTAGGGTTAGGGTTAGGGATGTCCAGCAAGCCAGAATTCGGCAGCGTA (double strand) [48-bp telomeric duplex (3 TTAGGG)]
- binding result: binds
